Experimental data taken from PMC7819943, “Rice protein-binding microarrays: a tool to detect cis-acting elements near promoter regions in rice”.
The list shows a part of the results.

Protein sequences, listed by entry. Tags and fused reporters are not part of them.
UniProt Q0JBA9, entry or part of it: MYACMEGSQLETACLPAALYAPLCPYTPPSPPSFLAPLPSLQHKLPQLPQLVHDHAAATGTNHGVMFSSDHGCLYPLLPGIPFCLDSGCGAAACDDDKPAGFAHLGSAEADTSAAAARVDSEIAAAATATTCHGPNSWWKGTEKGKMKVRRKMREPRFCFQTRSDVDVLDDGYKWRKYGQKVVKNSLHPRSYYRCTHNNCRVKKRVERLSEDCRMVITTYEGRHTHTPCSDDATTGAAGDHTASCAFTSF

target: OsWRKY34 (Oryza sativa, UniProt Q0JBA9 1-250); assay: protein-binding microarray (RPBM); PBS, 2% BSA, 51.3 ng/ul salmon testes DNA, 50 uM zinc acetate, 200 nM TF, 25 C, 1 h; high values mean tight binding; conditions: protein: recombinant; tags: N-terminal polyhistidine and DsRed monomer fusion (pET32a); label: CyDye5-dUTP incorporated in the synthesized complementary strand; 3' TTTTT single-stranded linker to array surface; dsDNA, one strand shown
Outline: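 A custom Agilent array was converted to double-stranded form by primer extension with Cy5-dUTP and blocked with 2% BSA. Protein at 200 nM in PBS with 2% BSA, salmon testes DNA and 50 µM zinc acetate was applied for 1 h at 25 °C, followed by washing. The proteins were polyhistidine–DsRed N-terminal fusions of transcription factors, expressed in E. coli BL21-CodonPlus and Ni–NTA-purified. The binding signal is per-feature fluorescence intensity (arbitrary units) from an Axon 4000B scanner.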

Sequence | binding signal
CTTTCTTTGTTTTTTTAAAATATGTTTATAGCTAGCTTATCGGAGTCACCTAGTGCAG | 8930 fluorescence intensity (a.u.)
GTCGCTTTACTAATTATTACTACTCATGCTTACTTTTTACCGGAGTCACCTAGTGCAG | 13200 fluorescence intensity (a.u.)
CGGCCTGTACGATTTACCTGTTGGTTCGGTCGCTCCGTTCCGGAGTCACCTAGTGCAG | 8840 fluorescence intensity (a.u.)
AAATATATGATCCATCACATCCTATAATATATTCACTCTCCGGAGTCACCTAGTGCAG | 8590 fluorescence intensity (a.u.)
AGCAACTGGGTGGGGCGACGACGGGGATGGGTGGCAAACTCGGAGTCACCTAGTGCAG | 12800 fluorescence intensity (a.u.)
TTTTTATGTGTACTTTTATCTATAACTTATTAGAGACTTGCGGAGTCACCTAGTGCAG | 14100 fluorescence intensity (a.u.)
CCTGCTTAAACCCTCTATTCGTCTTCTCCAAGCAAAACCACGGAGTCACCTAGTGCAG | 8380 fluorescence intensity (a.u.)
AGAGTTCTTTCACTGTCTCTTGTCTCTTTCGTTGATAGTCCGGAGTCACCTAGTGCAG | 8960 fluorescence intensity (a.u.)
TGCGGCGGGCGGGCGAGACGACGAGCGATCGAATATCCTCCGGAGTCACCTAGTGCAG | 8020 fluorescence intensity (a.u.)
TACTTGCACCCATCATCCACCACATCCATCTGATATAACTCGGAGTCACCTAGTGCAG | 9680 fluorescence intensity (a.u.)
AGTGTAACTACATTCTACTCAATCTCCTTATTTGTCGTGCCGGAGTCACCTAGTGCAG | 8240 fluorescence intensity (a.u.)
TCTTTTTTCTCTTCTTCTTCTCCTCCATTCCATTCCATTTCGGAGTCACCTAGTGCAG | 8930 fluorescence intensity (a.u.)
AATCCAGCTTTGGCTTATAGTTCATTTTCTAGATTCTACACGGAGTCACCTAGTGCAG | 12700 fluorescence intensity (a.u.)
AACGTTTTAATTAAGCTTTCGGTTTTGTCCACTACCCCACCGGAGTCACCTAGTGCAG | 9570 fluorescence intensity (a.u.)
CAACTTTGTCTCCGTGCCTTCCGGGCGTGCTCCTCAATTTCGGAGTCACCTAGTGCAG | 8350 fluorescence intensity (a.u.)
CTCTCGCCGTCTCCATCTCCGCCTCGAATCCTTCCCTCTCCGGAGTCACCTAGTGCAG | 11700 fluorescence intensity (a.u.)
ACCGTCCTCCGCGCCGCTCACCGACCTCGACGGCGTCCTCCGGAGTCACCTAGTGCAG | 8330 fluorescence intensity (a.u.)
CTCGGCCCGCTCTGCTTCGACGTCGGCCCCTCCGCGCTGTCGGAGTCACCTAGTGCAG | 9040 fluorescence intensity (a.u.)
CATCCGTTCCCAGATACTGGTCCTTCAACCGCGATCCACGCGGAGTCACCTAGTGCAG | 8170 fluorescence intensity (a.u.)
CCAGCGTTGTTGGATCGCCAACTATATTTGCCACTATCATCGGAGTCACCTAGTGCAG | 8960 fluorescence intensity (a.u.)
CATTTCGATTATTCCTGAGACGTTGCTTCTTGCTTGTGCTCGGAGTCACCTAGTGCAG | 9080 fluorescence intensity (a.u.)

As entered above:
In binding signal, AACGTTTTAATTAAGCTTTCGGTTTTGTCCACTACCCCACCGGAGTCACCTAGTGCAG shows 9570 fluorescence intensity (a.u.)
In binding signal, CAACTTTGTCTCCGTGCCTTCCGGGCGTGCTCCTCAATTTCGGAGTCACCTAGTGCAG shows 8350 fluorescence intensity (a.u.)
In binding signal, CCAGCGTTGTTGGATCGCCAACTATATTTGCCACTATCATCGGAGTCACCTAGTGCAG shows 8960 fluorescence intensity (a.u.)

Remaining list, next part:

Sequence | binding signal
GGGTAGGGGTAGGGTTGATAGAGAGAGGTTCCGGGATGACCGGAGTCACCTAGTGCAG | 8860 fluorescence intensity (a.u.)
TCGATCTCATCCCAACCTGTTCGATCGTCGCCTCCGCCGACGGAGTCACCTAGTGCAG | 10600 fluorescence intensity (a.u.)
ATCTGCTGCCTACTGCGATTTTATCTTTTGTTTCTGTGGCCGGAGTCACCTAGTGCAG | 10600 fluorescence intensity (a.u.)
CCACCGTTGGTCGACCCCGTTCCGTTTGGCCGTTTCCCAACGGAGTCACCTAGTGCAG | 10300 fluorescence intensity (a.u.)
AAGATAGAGCTGACACGTGGGTTTTAGGTATTTTGGTTAACGGAGTCACCTAGTGCAG | 8240 fluorescence intensity (a.u.)
GTCATAGAATATATCATATCCGGTTCTAGATTCGTTTTTTCGGAGTCACCTAGTGCAG | 8510 fluorescence intensity (a.u.)
GAGAGCTGTCTCCGCCACTACATATCACCCAACCAACTTCCGGAGTCACCTAGTGCAG | 11000 fluorescence intensity (a.u.)
GGCCGGCGTGGTGGGTTGGAGGGGCGCATGCTCCCGCTGGCGGAGTCACCTAGTGCAG | 11000 fluorescence intensity (a.u.)
CCAGTCAATTAGTCAAACCCCATCCACCTCTCCTGGCTCTCGGAGTCACCTAGTGCAG | 8210 fluorescence intensity (a.u.)
CGCGAGAGCTACATTTTTGTCTTCGTTTTAATCACGTCAACGGAGTCACCTAGTGCAG | 9210 fluorescence intensity (a.u.)
TGTACCCCTGAAATTTCGCTTTGATCTCTTCCGTGTGTTCCGGAGTCACCTAGTGCAG | 8980 fluorescence intensity (a.u.)
CATCTTCTCGCTCGCCTCTCGCTGTCTCGCACTCGCCGCCCGGAGTCACCTAGTGCAG | 9550 fluorescence intensity (a.u.)
GTTGAGGGACGCGTTATATTTGGGGCTTGTTCACTTTGATCGGAGTCACCTAGTGCAG | 8230 fluorescence intensity (a.u.)
AACGACCACACCAGATGATCTCTCCGCACGCCGTCCTGTCCGGAGTCACCTAGTGCAG | 11600 fluorescence intensity (a.u.)
ACTCCTCACATATATATATATACCACATTGTTGTCATGGCCGGAGTCACCTAGTGCAG | 8490 fluorescence intensity (a.u.)
CTTCCTGTCTCCTTCTTCTTCAGGGAAGTCTATTTCTTTTCGGAGTCACCTAGTGCAG | 8590 fluorescence intensity (a.u.)
ATGTTTTTCCTATTTCTCCGTTTTTTCATTCCTGTAATTCCGGAGTCACCTAGTGCAG | 8080 fluorescence intensity (a.u.)
TAGAGAAAATAACGTGGAGCTGAGACGGGTGGTGGAGGGGCGGAGTCACCTAGTGCAG | 10200 fluorescence intensity (a.u.)
CCCCGCCATCGCGGACTCCAATGATAAAATATCCTCTTCTCGGAGTCACCTAGTGCAG | 8800 fluorescence intensity (a.u.)
CTTATAAACGCCGCTTTGTGCTTCAATGCCACCAACTCAACGGAGTCACCTAGTGCAG | 13000 fluorescence intensity (a.u.)
TCGCTGTTTAGTTATGAAATTAGTTTTTTCATTCGTGTCCCGGAGTCACCTAGTGCAG | 8980 fluorescence intensity (a.u.)
